These are yes or no findings as the source states them, for the method shown. Some results given as binding are weak or reduced against the parent protein; the word gives no strength. Tags and fused reporters may be left off the sequences shown.
Columns and labels:
BMP6 [1] = target: BMP6 (UniProt P22004); assay: Biacore SPR
activin B = target: T1, activin B (UniProt P09529); assay: Biacore SPR
T1 sequence (looked up): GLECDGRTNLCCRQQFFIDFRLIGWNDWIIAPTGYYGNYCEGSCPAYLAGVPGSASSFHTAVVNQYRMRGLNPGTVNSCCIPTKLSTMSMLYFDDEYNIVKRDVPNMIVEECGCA

Amino acid sequences for entries named in this document (tags omitted). Residues count along the entry.
UniProt P22004, residues 382-513: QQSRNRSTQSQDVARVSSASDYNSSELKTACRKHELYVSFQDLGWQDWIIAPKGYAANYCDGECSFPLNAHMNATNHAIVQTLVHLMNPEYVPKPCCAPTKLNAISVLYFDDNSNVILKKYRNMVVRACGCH
UniProt O95393, residues 317-424: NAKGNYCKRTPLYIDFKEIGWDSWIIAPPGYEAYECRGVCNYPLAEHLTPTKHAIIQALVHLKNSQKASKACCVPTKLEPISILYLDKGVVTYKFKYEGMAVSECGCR
UniProt P22003, residues 317-454: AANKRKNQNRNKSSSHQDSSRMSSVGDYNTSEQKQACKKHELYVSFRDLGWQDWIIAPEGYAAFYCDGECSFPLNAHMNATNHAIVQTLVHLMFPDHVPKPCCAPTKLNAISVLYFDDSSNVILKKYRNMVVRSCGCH
UniProt Q9UK05, residues 320-429: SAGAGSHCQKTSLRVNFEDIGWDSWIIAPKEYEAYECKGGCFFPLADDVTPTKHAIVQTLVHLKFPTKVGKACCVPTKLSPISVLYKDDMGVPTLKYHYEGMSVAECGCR

BMP10 = BMP10 (UniProt O95393); assay: Biacore SPR
GDF8 = target: T2, GDF8 (UniProt O14793); assay: Biacore SPR
T2 sequence (looked up): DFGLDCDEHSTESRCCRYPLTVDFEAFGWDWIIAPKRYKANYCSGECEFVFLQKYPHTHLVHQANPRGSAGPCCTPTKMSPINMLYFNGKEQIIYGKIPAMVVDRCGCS

BMP5 = BMP5 (UniProt P22003); assay: Biacore SPR
GDF3 = target: T3, GDF3 (UniProt Q9NR23); assay: Biacore SPR
T3 sequence (looked up): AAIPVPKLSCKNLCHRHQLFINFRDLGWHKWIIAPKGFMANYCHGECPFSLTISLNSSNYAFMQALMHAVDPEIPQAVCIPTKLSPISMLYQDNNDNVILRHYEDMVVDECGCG

GDF11 = target: T4, GDF11 (UniProt O95390); assay: Biacore SPR
T4 sequence (looked up): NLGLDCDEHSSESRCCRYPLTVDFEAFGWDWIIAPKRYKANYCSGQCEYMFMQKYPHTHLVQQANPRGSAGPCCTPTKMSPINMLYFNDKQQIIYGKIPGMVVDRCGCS

BMP9 = BMP9 (UniProt Q9UK05); assay: Biacore SPR
GDF5 = target: T5, GDF5 (UniProt P43026); assay: Biacore SPR; kinetics indeterminate (transient)
T5 sequence (looked up): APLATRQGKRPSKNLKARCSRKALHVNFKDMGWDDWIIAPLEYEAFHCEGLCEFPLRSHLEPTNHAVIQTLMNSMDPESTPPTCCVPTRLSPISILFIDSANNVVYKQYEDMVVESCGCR

GDF7 = target: T6, GDF7 (UniProt Q7Z4P5); assay: Biacore SPR; kinetics indeterminate (transient)
T6 sequence (looked up): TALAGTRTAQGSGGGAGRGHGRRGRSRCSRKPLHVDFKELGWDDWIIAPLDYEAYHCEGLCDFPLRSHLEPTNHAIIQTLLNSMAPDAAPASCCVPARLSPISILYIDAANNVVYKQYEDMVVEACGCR

BMP6 [2] = target: BMP6 (UniProt P22004); assay: Biacore SPR; kinetics indeterminate (transient)
GDF6 = target: T7, GDF6 (UniProt Q6KF10); assay: Biacore SPR; kinetics indeterminate (transient)
T7 sequence (looked up): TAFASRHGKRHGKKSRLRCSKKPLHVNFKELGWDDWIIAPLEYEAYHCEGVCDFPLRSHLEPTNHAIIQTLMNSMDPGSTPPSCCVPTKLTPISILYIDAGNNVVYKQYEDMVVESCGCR

Measured: binding

B1: ActRIIB-Fc homodimer (Fc fusion, UniProt Q13705 19-137, looked up, not shown: a dimerising Fc or GST)
chain: SGRGEAETRECIYYNANWELERTNQSGLERCEGEQDKRLHCYASWRNSSGTIELVKKGCWLDDFNCYDRQECVATEENPQVYFCCCEGNFCNERFTHLPEAGGPEVTYEPPPTAPTLLT
not listed: BMP6 [2] | GDF6
binds: all other assays above

B2: BMPRII-Fc homodimer (Fc fusion, UniProt Q13873 27-150, looked up, not shown: a dimerising Fc or GST)
chain: SQNQERLCAFKDPYQQDLGIGESRISHENGTILCSKGSTCYGLWEKSKGDINLVKQGCWSHIGDPQECHYEECVVTTTPPSIQNGTYRFCCCSTDLCNVNFTENFPPPDTTPLSPPHSFNRDET
binds: BMP6 [2] | GDF6
